The values below come from patent publication US20200071759.

Construct, isoform or probe ends are uncertain for at least one entry. Negatives hold for the conditions tested.

In the data set the test system is lectin. Briefly: binding assay. As to conditions: 3'-phosphate on Capture Probe [1]; RCA readout, 10 mM KCl, 37 C; reaction stated specific only to thrombin; purified native protein.

For the sequence “AAAGGAGAACCTCAAGCTCCTTTGGTTGGTG / TGGTTGGAAATTTTTTG”, the binding result is given as “no binding”.
